Some entries share one result that the patent states for a list of compounds. At least one structure is not confirmed: it was looked up by name or label, or the drawing left a doubt.
These compounds were tested against novel receptor obtainable from rat forebrain tissue (assay: Binding assay: displacement of [3H]-Compound A from rat forebrain tissue). Conditions: competition with [3H]-Compound A (usually 20 nM), rat whole forebrain tissue, room temperature, 1 hour.

pKi, > 7.5:
Cc1ccc(C(=O)Nc2ccc3c(c2)CN(C)CC3(C)C)cc1Br [Example E24, N-(2,4,4-Trimethyl-1,2,3,4-tetrahydroisoquinolin-7-yl)-3-bromo-4-methylbenzamide]
COc1cc(OC(C)C)c(Cl)cc1C(=O)Nc1cccc2c1C(C)(C)CN(C)C2 [Example E29, N-(2,4,4-Trimethyl-1,2,3,4-tetrahydroisoquinolin-5-yl)-5-chloro-2-methoxy-4-iso-propyloxybenzamide]
COc1cc(C(C)C)c(Br)cc1C(=O)Nc1cccc2c1C(C)(C)CN(C)C2 [Example E30, N-(2,4,4-Trimethyl-1,2,3,4-tetrahydroisoquinolin-5-yl)-5-bromo-2-methoxy-4-iso-propylbenzamide]
CCOc1cc(OC)c(C(=O)Nc2cccc3c2C(C)(C)CN(C)C3)cc1C(F)(F)F [Example E31, N-(2,4,4-Trimethyl-1,2,3,4-tetrahydroisoquinolin-5-yl)-4-ethoxy-2-methoxy-5-trifluoromethylbenzamide]
COc1cc(C(C)C)c(C(F)(F)F)cc1C(=O)Nc1cccc2c1C(C)(C)CN(C)C2 [Example E34, N-(2,4,4-Trimethyl-1,2,3,4-tetrahydroisoquinolin-5-yl)-2-methoxy-4-iso-propyl-5-trifluoromethylbenzamide]
CCOc1ccc(C(=O)Nc2ccc3c(c2)CN(C)CC32CCCC2)cc1Br [Example E36, N-(4,4-Spirocyclopentyl-2-methyl-1,2,3,4-tetrahydroisoquin-7-yl)-3-bromo-4-ethoxybenzamide]
CCc1cc(C(=O)Nc2ccc3c(c2)CN(C)CC32CCCC2)ccc1Br [Example E40, N-(4,4-Spirocyclopentyl-2-methyl-1,2,3,4-tetrahydroisoquinolin-7-yl)-4-bromo-4-ethylbenzamide]
CCOc1ccc(C(=O)Nc2ccc3c(c2)CN(C)CC3(C)C)cc1C(F)(F)F.Cl [Example E41, N-(2,4,4-Trimethyl-1,2,3,4-tetrahydroisoquinolin-7-yl)-4-ethoxy-3-trifluoromethyl-benzamide, Hydrochloride]
CCOc1ccc(C(=O)Nc2ccc3c(c2)CNCC3(C)C)cc1Br [Example E43, N-(4,4-Dimethyl-1,2,3,4-tetrahydroisoquinolin-7-yl)-3-bromo-4-ethoxybenzamide]
CCOc1ccc(C(=O)Nc2ccc3c(c2CC)CN(C)CC3(C)C)cc1Br [Example E44, N-(8-Ethyl-2,4,4-trimethyl-1,2,3,4-tetrahydroisoquinolin-7-yl)-3-bromo-4-ethoxybenzamide]
CCc1c(NC(=O)c2ccc(OC)c(C(F)(F)F)c2)ccc2c1CN(C)CC2(C)C [Example E45, N-(8-Ethyl-2,4,4-trimethyl-1,2,3,4-tetrahydroisoquinolin-7-yl)-4-methoxy-3-trifluoromethylbenzamide]
CCc1c(NC(=O)c2ccc(OC(C)C)c(Br)c2)ccc2c1CN(C)CC2(C)C [Example E46, N-(8-Ethyl-2,4,4-trimethyl-1,2,3,4-tetrahydroisoquinolin-7-yl)-3-bromo-4-iso-propyloxybenzamide]
CCc1c(NC(=O)c2ccc(C(C)C)c(C#N)c2)ccc2c1CN(C)CC2(C)C [Example E47, N-(8-Ethyl-2,4,4-trimethyl-1,2,3,4-tetrahydroisoquinolin-7-yl)-3-cyano-4-iso-propylbenzamide]
CCc1c(NC(=O)c2ccc(OC(C)C)c(C(C)=O)c2)ccc2c1CN(C)CC2(C)C [Example E48, N-(8-Ethyl-2,4,4-trimethyl-1,2,3,4-tetrahydroisoquinolin-7-yl)-3-acetyl-4-iso-propyloxybenzamide]
CCc1ccc(C(=O)Nc2cc(Cl)c3c(c2)C(C)(C)N(C)CC3)cc1Br [Example E49, N-(5-Chloro-1,1,2-trimethyl-1,2,3,4-tetrahydroisoquinolin-7-yl)-3-bromo-4-ethyl benzamide]
CC(C)c1ccc(C(=O)Nc2cc(Cl)c3c(c2)C(C)(C)N(C)CC3)cc1C#N [Example E50, N-(5-Chloro-1,1,2-trimethyl-1,2,3,4-tetrahydroisoquinolin-7-yl)-3-cyano-4-iso-propylbenzamide]
COc1ccc(C(=O)Nc2cc(Cl)c3c(c2)C(C)(C)N(C)CC3)cc1C(F)(F)F [Example E51, N-(5-Chloro-1,1,2-trimethyl-1,2,3,4-tetrahydroisoquinolin-7-y)-4-methoxy-3-trifluoromethylbenzamide]
CCOc1ccc(C(=O)Nc2cc(Cl)c3c(c2)C(C)(C)N(C)CC3)cc1Br [Example E52, N-(5-Chloro-1,1,2-trimethyl-1,2,3,4-tetrahydroisoquinolin-7-yl)-3-bromo-4-ethoxybenzamide]
CC(C)c1ccc(C(=O)Nc2ccc3c(c2)C(C)(C)N(C)CC3)cc1C#N [Example E65, N-(1,1,2-Trimethyl-1,2,3,4-tetrahydroisoquinolin-7-yl)-3-cyano-4-iso-propyl-benzamide]
CCc1ccc(C(=O)Nc2ccc3c(c2)C(C)(C)N(C)CC3)cc1Br [Example E66, N-(1,1,2-Trimethyl-1,2,3,4-tetrahydroisoquinolin-7-yl)-3-bromo-4-ethylbenzamide]
CCOc1ccc(C(=O)Nc2ccc3c(c2)C(C)(C)N(C)CC3)cc1Br [Example E67, N-(1,1,2-Trimethyl-1,2,3,4-tetrahydroisoquinolin-7-yl)-3-bromo-4-ethoxybenzamide]
CC(C)Oc1ccc(C(=O)Nc2ccc3c(c2)C(C)(C)N(C)CC3)cc1Cl [Example E68, N-(1,1,2-Trimethyl-1,2,3,4-tetrahydroisoquinolin-7-yl)-3-chloro-4-iso-propoxybenzamide]
COc1ccc(C(=O)Nc2ccc3c(c2)CN(C)C(C)(C)C3)cc1C(F)(F)F [Example E69, N-(2,3,3-Trimethyl-1,2,3,4-tetrahydroisoquinolin-7-yl)4-methoxy-3-trifluoromethylbenzamide]
CCOc1ccc(C(=O)Nc2ccc3c(c2)CN(C)C(C)(C)C3)cc1Br [Example E72, N-(2,3,3-Trimethyl-1,2,3,4-tetrahydroisoquinolin-7-yl)-3-bromo-4-ethoxybenzamide]
CC(C)c1ccc(C(=O)Nc2ccc3c(c2)CN(C)CC32CCC2)cc1C#N [Example E74, N-(4,4-Spirocyclobutyl-2-methyl-1,2,3,4-tetrahydroisoquinolin-7-yl)-3-cyano-4-iso-propylbenzamide]
CCOc1ccc(C(=O)Nc2ccc3c(c2)CN(C)CC32CCC2)cc1Br [Example E75, N-(4,4-Spirocyclobutyl-2-methyl1,2,3,4-tetrahydroisoquinolin-7-yl)-3-bromo-4-ethoxybenzamide]
CC(C)Oc1ccc(C(=O)Nc2ccc3c(c2)CN(C)CC32CCC2)cc1Cl [Example E76, N-(4,4-Spirocyclobutyl-2-methyl-1,2,3,4-tetrahydroisoquinolin-7-yl)-3-chloro-4-iso-propoxybenzamide]
COc1ccc(C(=O)Nc2ccc3c(c2)CN(C)CC32CCC2)cc1C(F)(F)F [Example E77, N-(4,4-Spirocyclobutyl-2-methyl-1,2,3,4-tetrahydroisoquinolin-7-yl)-4-methoxy-3-trifluoromethylbenzamide]
CCOc1ccc(C(=O)Nc2ccc3c(c2)CN(C)CC32CCC2)cc1C(F)(F)F [Example E78, N-(4,4-Spirocyclobutyl-2-methyl-1,2,3,4-tetrahydroisoquinolin-7-yl)-4-ethoxy-3-trifluoromethylbenzamide]
CCc1ccc(C(=O)Nc2cc(C)c3c(c2)C(C)(C)N(C)CC3)cc1Br.Cl [Example E85, N-(1,1,2,5-Tetramethyl-1,2,3,4-tetrahydroisoquinolin-7-yl)-3-bromo-4-ethylbenzamide Hydrochloride]
Cc1cc(NC(=O)c2ccc(C(C)C)c(C#N)c2)cc2c1CCN(C)C2(C)C.Cl [Example E86, N-(1,1,2,5-Tetramethyl-1,2,3,4-tetrahydroisoquinolin-7-yl)-3-cyano-4iso-propylbenzamide Hydrochloride]
COc1ccc(C(=O)Nc2cc(C)c3c(c2)C(C)(C)N(C)CC3)cc1C(F)(F)F.Cl [Example E87, N-(1,1,2,5-Tetramethyl-1,2,3,4-tetrahydroisoquinolin-7-yl)-4-methoxy-3-trifluoromethylbenzamide Hydrochloride]
COc1ccc(C(=O)Nc2cc(C(F)(F)F)c3c(c2)C(C)(C)N(C)CC3)cc1C(F)(F)F.Cl [Example E88, N-(1,1,2-Trimethyl-5-trifluoromethyl-1,2,3,4-tetrahydroisoquinolin-7-yl)4-methoxy-3-trifluoromethylbenzamide Hydrochloride]
CCOc1ccc(C(=O)Nc2cc(C(F)(F)F)c3c(c2)C(C)(C)N(C)CC3)cc1Br.Cl [Example E89, N-(1,1,2-Trimethyl-5-trifluoromethyl-1,2,3,4-tetrahydroisoquinolin-7-yl)-3-bromo-4-ethoxybenzamide Hydrochloride]
CCOc1ccc(C(=O)Nc2cc(C(F)(F)F)c3c(c2)C(C)(C)N(C)CC3)cc1C#N.Cl [Example E90, N-(1,1,2-Trimethyl-5-trifluoromethyl-1,2,3,4-tetrahydroisoquinolin-7-yl)-3-cyano4-ethoxybenzamide Hydrochloride]
CCc1ccc(C(=O)Nc2ccc3c(c2)CN(C)CC3(C)C)cc1C(F)(F)F.Cl [Example E91, N-(2,4,4-Trimethyl-1,2,3,4-tetrahydroisoquinolin-7-yl)-4-ethyl-3-trifluoromethyl-benzamide Hydrochloride]
CCOc1ccc(C(=O)Nc2ccc3c(c2)CN(C)CC3(C)C)cc1C(C)=O [Example E93, N-(2,4,4-Trimethyl-1,2,3,4-tetrahydroisoquinolin-7-yl)-3-acetyl-4-ethoxybenzamide]

Source: patent US6492378B1, “Substituted isoquinoline derivatives and their use as anticonvulsivants” (SmithKline Beecham p.l.c., priority 1998, dated 2002)
